No constants are given. Whether binding was seen depends on the method and setting. Some binding calls cover weakened binding; strength is not graded here. For part of these data: Where a sequence is shown, tags or fusion partners need not be part of it.

The target in test [1] is T1, histidine-tagged Vag8 passenger domain (residues Val40 to Leu610) (Bordetella pertussis) (UniProt Q79GN7).
T1 sequence: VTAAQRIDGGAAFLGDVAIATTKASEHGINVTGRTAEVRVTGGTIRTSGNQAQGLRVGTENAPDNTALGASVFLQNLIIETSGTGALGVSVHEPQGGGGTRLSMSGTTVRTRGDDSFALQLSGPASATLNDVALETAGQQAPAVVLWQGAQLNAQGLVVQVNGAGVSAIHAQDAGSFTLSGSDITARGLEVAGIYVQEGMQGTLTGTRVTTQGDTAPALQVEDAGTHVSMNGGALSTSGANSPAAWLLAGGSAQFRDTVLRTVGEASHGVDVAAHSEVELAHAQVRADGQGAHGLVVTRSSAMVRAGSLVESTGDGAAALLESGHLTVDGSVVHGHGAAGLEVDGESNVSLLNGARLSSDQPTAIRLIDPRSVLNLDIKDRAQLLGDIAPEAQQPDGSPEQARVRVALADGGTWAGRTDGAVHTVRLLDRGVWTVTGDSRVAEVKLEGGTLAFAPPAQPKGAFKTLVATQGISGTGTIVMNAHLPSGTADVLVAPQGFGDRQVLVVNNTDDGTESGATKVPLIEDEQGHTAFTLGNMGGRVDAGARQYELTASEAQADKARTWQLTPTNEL
The test can be described thus: far-Western, overlay or dot blot; data not shown; purified Vag8 or BrkA passenger domains on SDS-PAGE, blotted, renatured, overlaid with 1% normal human serum in Veronal buffer; detected with anti-C1inh; only the target purified.

In test [2] the target is T1, histidine-tagged Vag8 passenger domain (residues Val40 to Leu610) (Bordetella pertussis). The test is described as follows: ELISA; MaxiSorp plates coated with two-fold dilutions of purified passenger domain (top 5 µg/ml); probed 1 h at room temperature with 2% normal human serum in 1x Veronal buffer; detected with goat anti-C1inh; only the target purified.
In test [3] the target is T2, BrkA expressed from plasmid pBrkA in BP338Vag8^- (Bordetella pertussis) (UniProt Q45340).
T2 sequence: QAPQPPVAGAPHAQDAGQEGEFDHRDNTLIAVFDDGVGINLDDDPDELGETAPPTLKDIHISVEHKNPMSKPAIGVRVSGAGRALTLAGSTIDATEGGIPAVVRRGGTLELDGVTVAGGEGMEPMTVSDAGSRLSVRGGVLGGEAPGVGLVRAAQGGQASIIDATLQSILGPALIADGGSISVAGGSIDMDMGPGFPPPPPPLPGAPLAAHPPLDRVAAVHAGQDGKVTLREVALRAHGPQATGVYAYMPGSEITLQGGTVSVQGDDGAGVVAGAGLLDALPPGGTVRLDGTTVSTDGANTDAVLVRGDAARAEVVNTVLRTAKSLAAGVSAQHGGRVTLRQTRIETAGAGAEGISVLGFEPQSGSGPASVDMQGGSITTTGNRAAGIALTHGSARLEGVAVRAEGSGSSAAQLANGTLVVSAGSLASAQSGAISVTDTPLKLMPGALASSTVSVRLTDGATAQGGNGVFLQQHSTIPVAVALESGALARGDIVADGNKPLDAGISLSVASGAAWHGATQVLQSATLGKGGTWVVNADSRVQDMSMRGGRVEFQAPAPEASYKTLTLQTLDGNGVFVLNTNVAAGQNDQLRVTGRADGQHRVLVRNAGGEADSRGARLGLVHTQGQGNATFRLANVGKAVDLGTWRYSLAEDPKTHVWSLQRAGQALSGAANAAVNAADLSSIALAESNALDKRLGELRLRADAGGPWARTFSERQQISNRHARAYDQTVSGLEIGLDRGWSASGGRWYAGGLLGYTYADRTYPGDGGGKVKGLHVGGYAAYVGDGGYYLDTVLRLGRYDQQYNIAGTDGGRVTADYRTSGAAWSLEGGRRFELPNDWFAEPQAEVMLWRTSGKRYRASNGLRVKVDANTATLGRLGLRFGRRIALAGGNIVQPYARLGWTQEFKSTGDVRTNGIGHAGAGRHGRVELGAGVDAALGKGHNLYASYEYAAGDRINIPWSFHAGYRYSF
The test is described as follows: surface-binding assay (bacteria in serum, immunoblot of cell-associated C1inh); viable bacteria exposed to normal human serum 15 min at 37°C, on ice 5 min, washed 3 times, pelleted; cell-associated C1inh detected by immunoblot; vag8 knock-out strains as controls.

B1: purified human C1 esterase inhibitor (natural protein)
chain: NPNATSSSSQDPESLQDRGEGKVATTVISKMLFVEPILEVSSLPTTNSTTNSATKITANTTDEPTTQPTTEPTTQPTIQPTQPTTQLPTDSPTQPTTGSFCPGPVTLCSDLESHSTEAVLGDALVDFSLKLYHAFSAMKKVETNMAFSPFSIASLLTQVLLGAGENTKTNLESILSYPKDFTCVHQALKGFTTKGVTSVSQIFHSPDLAIRDTFVNASRTLYSSSPRVLSNNSDANLELINTWVAKNTNNKISRLLDSLPSDTRLVLLNAIYLSAKWKTTFDPKKTRMEPFHFKNSVIKVPMMNSKKYPVAHFIDQTLKAKVGQLQLSHNLSLVILVPQNLKHRLEDMEQALSPSVFKAIMEKLEMSKFQPTLLTLPRIKVTTSQDMLSIMEKLEFFDFSYDLNLCGLTEDPDLQVSAMQHQTVLELTETGVEAAAASAISVARTLLVFEVQQPFLFVLWDQQHKFPVFMGRVYDPRA
notes: also called C1inh; purified C1inh; source: bought: Advanced Research Technologies (purified human C1inh)
In the case of B1, the binding entry is on record as “binds” in test [1], “binds” in test [2] and “no binding” in test [3].

The values above are taken from PMC3114845, “Bordetella pertussis Autotransporter Vag8 Binds Human C1 Esterase Inhibitor and Confers Serum Resistance” (PLoS ONE, 2011).
